Assay results from the supplement of paper PMC8728848.
The list shows a part of the results.

Legend:
Assay in all cases: glycan array binding signal (z-score within array); higher = stronger binding
Conditions in all cases: glycan notation: IUPAC condensed, linker removed
[1] = target: Neu5Ac(a2-3)Gal(b1-3)[Fuc(a1-4)]GlcNAc
How it was run: (§1)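 Columns mapping to the same glycan were averaged after glycan names were converted to IUPAC-condensed notation. The data come from 3228 arrays in the Consortium for Functional Glycomics database, limited to those with an available protein sequence. Binding is reported as a within-array Z-score averaged across arrays of one protein sequence and across linkers.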

[2] = target: Neu5Ac(a2-3)Gal(b1-3)[Fuc(a1-4)]GlcNAc(b1-3)Gal(b1-3)[Fuc(a1-4)]GlcNAc
How it was run: as §1

[3] = target: Neu5Ac(a2-3)Gal(b1-3)[Fuc(a1-4)]GlcNAc(b1-3)Gal(b1-4)[Fuc(a1-3)]GlcNAc
How it was run: as §1

[4] = target: Neu5Ac(a2-3)Gal(b1-3)[GlcNAc(b1-6)]GalNAc
How it was run: as §1

[5] = target: Neu5Ac(a2-3)Gal(b1-3)[Neu5Ac(a2-6)]GalNAc
How it was run: as §1

[6] = target: Neu5Ac(a2-3)Gal(b1-3)[Neu5Ac(a2-6)]GlcNAc(b1-3)[Fuc(a1-3)[Gal(b1-4)]GlcNAc(b1-6)]Gal(b1-4)Glc
How it was run: as §1

[7] = target: Neu5Ac(a2-3)Gal(b1-3)]Neu5Ac(a2-3)Gal(b1-4)]GlcNAc
How it was run: as §1

Neu5Ac(a2-3)Gal(b1-4)Glc = target: Neu5Ac(a2-3)Gal(b1-4)Glc
How it was run: as §1

[8] = target: Neu5Ac(a2-3)Gal(b1-4)GlcNAc
How it was run: as §1

[9] = target: Neu5Ac(a2-3)Gal(b1-4)GlcNAc(b1-2)Man
How it was run: as §1

[10] = target: Neu5Ac(a2-3)Gal(b1-4)GlcNAc(b1-2)Man(a1-3)[GlcNAc(b1-4)][Neu5Ac(a2-3)Gal(b1-4)GlcNAc(b1-2)Man(a1-6)]Man(b1-4)GlcNAc(b1-4)GlcNAc
How it was run: as §1

[11] = target: Neu5Ac(a2-3)Gal(b1-4)GlcNAc(b1-2)Man(a1-3)[Neu5Ac(a2-3)Gal(b1-4)GlcNAc(b1-2)Man(a1-6)]Man(b1-4)GlcNAc(b1-4)GlcNAc
How it was run: as §1

[12] = target: Neu5Ac(a2-3)Gal(b1-4)GlcNAc(b1-2)Man(a1-3)[Neu5Ac(a2-3)Gal(b1-4)GlcNAc(b1-2)Man(a1-6)]Man(b1-4)GlcNAc(b1-4)[Fuc(a1-6)]GlcNAc
How it was run: as §1

[13] = target: Neu5Ac(a2-3)Gal(b1-4)GlcNAc(b1-2)Man(a1-3)[Neu5Ac(a2-6)Gal(b1-4)GlcNAc(b1-2)Man(a1-6)]Man(b1-4)GlcNAc(b1-4)GlcNAc
How it was run: as §1

[14] = target: Neu5Ac(a2-3)Gal(b1-4)GlcNAc(b1-2)[Neu5Ac(a2-3)Gal(b1-4)GlcNAc(b1-4)]Man(a1-3)[GlcNAc(b1-4)][Neu5Ac(a2-3)Gal(b1-4)GlcNAc(b1-2)[Neu5Ac(a2-3)Gal(b1-4)GlcNAc(b1-6)]Man(a1-6)]Man(b1-4)GlcNAc(b1-4)GlcNAc
How it was run: as §1

[15] = target: Neu5Ac(a2-3)Gal(b1-4)GlcNAc(b1-2)[Neu5Ac(a2-3)Gal(b1-4)GlcNAc(b1-4)]Man(a1-3)[GlcNAc(b1-4)][Neu5Ac(a2-3)Gal(b1-4)GlcNAc(b1-4)Man(a1-6)]Man(b1-4)GlcNAc(b1-4)GlcNAc
How it was run: as §1

[16] = target: Neu5Ac(a2-3)Gal(b1-4)GlcNAc(b1-2)[Neu5Ac(a2-3)Gal(b1-4)GlcNAc(b1-6)]Man(a1-6)[Neu5Ac(a2-3)Gal(b1-4)GlcNAc(b1-2)Man(a1-3)]Man(b1-4)GlcNAc(b1-4)GlcNAc
How it was run: as §1

[17] = target: Neu5Ac(a2-3)Gal(b1-4)GlcNAc(b1-2)[Neu5Ac(a2-3)Gal(b1-4)GlcNAc(b1-6)]Man(a1-6)[Neu5Ac(a2-3)Gal(b1-4)GlcNAc(b1-2)Man(a1-3)][GlcNAc(b1-4)]Man(b1-4)GlcNAc(b1-4)GlcNAc
How it was run: as §1

[18] = target: Neu5Ac(a2-3)Gal(b1-4)GlcNAc(b1-3)Gal
How it was run: as §1

[19] = target: Neu5Ac(a2-3)Gal(b1-4)GlcNAc(b1-3)Gal(b1-3)GlcNAc
How it was run: as §1

[20] = target: Neu5Ac(a2-3)Gal(b1-4)GlcNAc(b1-3)Gal(b1-4)GlcNAc
How it was run: as §1

[21] = target: Neu5Ac(a2-3)Gal(b1-4)GlcNAc(b1-3)Gal(b1-4)GlcNAc(b1-2)Man(a1-3)[Neu5Ac(a2-3)Gal(b1-4)GlcNAc(b1-3)Gal(b1-4)GlcNAc(b1-2)Man(a1-6)]Man(b1-4)GlcNAc(b1-4)GlcNAc
How it was run: as §1

[22] = target: Neu5Ac(a2-3)Gal(b1-4)GlcNAc(b1-3)Gal(b1-4)GlcNAc(b1-3)Gal(b1-4)GlcNAc
How it was run: as §1

[23] = target: Neu5Ac(a2-3)Gal(b1-4)GlcNAc(b1-3)Gal(b1-4)GlcNAc(b1-3)Gal(b1-4)GlcNAc(b1-2)Man(a1-3)[Neu5Ac(a2-3)Gal(b1-4)GlcNAc(b1-3)Gal(b1-4)GlcNAc(b1-3)Gal(b1-4)GlcNAc(b1-2)Man(a1-6)]GalNAc
How it was run: as §1

[24] = target: Neu5Ac(a2-3)Gal(b1-4)GlcNAc(b1-3)Gal(b1-4)GlcNAc(b1-3)GalNAc
How it was run: as §1

[25] = target: Neu5Ac(a2-3)Gal(b1-4)GlcNAc(b1-3)Gal(b1-4)GlcNAc(b1-3)[Neu5Ac(a2-3)Gal(b1-4)GlcNAc(b1-3)Gal(b1-4)GlcNAc(b1-6)]GalNAc
How it was run: as §1

[26] = target: Neu5Ac(a2-3)Gal(b1-4)GlcNAc(b1-3)Gal(b1-4)GlcNAc(b1-6)[Gal(b1-3)]GalNAc
How it was run: as §1

[27] = target: Neu5Ac(a2-3)Gal(b1-4)GlcNAc(b1-3)Gal(b1-4)[Fuc(a1-3)]GlcNAc
How it was run: as §1

[28] = target: Neu5Ac(a2-3)Gal(b1-4)GlcNAc(b1-3)GalNAc
How it was run: as §1

[29] = target: Neu5Ac(a2-3)Gal(b1-4)GlcNAc(b1-3)[Neu5Ac(a2-3)Gal(b1-4)GlcNAc(b1-6)]GalNAc
How it was run: as §1

B1: PX14404-bvu-534-26-534 (Bacteroides vulgatus) (protein)
chain: EDPRGKLTPENFFSTQDELNMSIYALYQKVNLSQVYTNMQLPQWQGDDITTNPGSNKQPAAEMDKFAAANNNKGVKDAWNMHYAIVKAANLIIQGASKTPTTQDEINIALGQAKFWRAYAYFTLVRLWGPLPMNLDNVNDDYTKPLSPVEEVYGHIVQDLTEAEAVLPTGYSGSPRFLNGVNVYVTRQAAKSTLAAVYMAMAGWPMNKTEYYAKAAEKAKEVIEGVNRGEYEYKLDKDYKDVYAMSNNYNNETVLGINYSPFVDWAQDSELTSCNQFESLGGWGDAWGEIRFWKEFPDGPRKDATYDPKIRLKDGTLVDWWELKEDGTPVVPEHHPMFSIFSVNWDPASKVNTSAPYDYTKPASQNMCNDHRHRIIRYSEVLLWYAEAKARTGQTDELAFKCLNDVRERAGLEPLTGLSADDLAEAAYKEHGWEVAGYWVALVTRRADQFRMNRLKDTFKERAENTAVEVADGILVKESVEYTNRTWSDNLMYLPYPDMDSQKNPNLVR
glycan array binding signal (z-score) [1]: 1.02 | glycan array binding signal (z-score) [2]: -1.01 | glycan array binding signal (z-score) [3]: -0.247 | glycan array binding signal (z-score) [4]: -0.253 | glycan array binding signal (z-score) [5]: 0.182 | glycan array binding signal (z-score) [6]: -1.47 | glycan array binding signal (z-score) [7]: 0.642 | glycan array binding signal (z-score) (Neu5Ac(a2-3)Gal(b1-4)Glc): -0.255 | glycan array binding signal (z-score) [8]: -0.096 | glycan array binding signal (z-score) [9]: -0.809 | glycan array binding signal (z-score) [10]: -0.235 | glycan array binding signal (z-score) [11]: -0.066 | glycan array binding signal (z-score) [12]: -0.073 | glycan array binding signal (z-score) [13]: 0.576 | glycan array binding signal (z-score) [14]: -0.764 | glycan array binding signal (z-score) [15]: 0.216 | glycan array binding signal (z-score) [16]: -0.695 | glycan array binding signal (z-score) [17]: -0.687 | glycan array binding signal (z-score) [18]: -1.05 | glycan array binding signal (z-score) [19]: -0.301 | glycan array binding signal (z-score) [20]: -0.385 | glycan array binding signal (z-score) [21]: -0.044 | glycan array binding signal (z-score) [22]: 0.484 | glycan array binding signal (z-score) [23]: 0.891 | glycan array binding signal (z-score) [24]: -0.217 | glycan array binding signal (z-score) [25]: 0.145 | glycan array binding signal (z-score) [26]: 0.521 | glycan array binding signal (z-score) [27]: 0.55 | glycan array binding signal (z-score) [28]: -0.13 | glycan array binding signal (z-score) [29]: 0.349
